Measured values reported in paper PMC10794146.
No constants are given. Whether binding was seen depends on the method and setting. Binding seen in cells or lysates may run through a third protein. Here binding means that the protein was enriched with, or labelled near, the bait; the list need not be complete.

Amino acid sequences for entries named in this document (tags omitted).
UniProt P35579: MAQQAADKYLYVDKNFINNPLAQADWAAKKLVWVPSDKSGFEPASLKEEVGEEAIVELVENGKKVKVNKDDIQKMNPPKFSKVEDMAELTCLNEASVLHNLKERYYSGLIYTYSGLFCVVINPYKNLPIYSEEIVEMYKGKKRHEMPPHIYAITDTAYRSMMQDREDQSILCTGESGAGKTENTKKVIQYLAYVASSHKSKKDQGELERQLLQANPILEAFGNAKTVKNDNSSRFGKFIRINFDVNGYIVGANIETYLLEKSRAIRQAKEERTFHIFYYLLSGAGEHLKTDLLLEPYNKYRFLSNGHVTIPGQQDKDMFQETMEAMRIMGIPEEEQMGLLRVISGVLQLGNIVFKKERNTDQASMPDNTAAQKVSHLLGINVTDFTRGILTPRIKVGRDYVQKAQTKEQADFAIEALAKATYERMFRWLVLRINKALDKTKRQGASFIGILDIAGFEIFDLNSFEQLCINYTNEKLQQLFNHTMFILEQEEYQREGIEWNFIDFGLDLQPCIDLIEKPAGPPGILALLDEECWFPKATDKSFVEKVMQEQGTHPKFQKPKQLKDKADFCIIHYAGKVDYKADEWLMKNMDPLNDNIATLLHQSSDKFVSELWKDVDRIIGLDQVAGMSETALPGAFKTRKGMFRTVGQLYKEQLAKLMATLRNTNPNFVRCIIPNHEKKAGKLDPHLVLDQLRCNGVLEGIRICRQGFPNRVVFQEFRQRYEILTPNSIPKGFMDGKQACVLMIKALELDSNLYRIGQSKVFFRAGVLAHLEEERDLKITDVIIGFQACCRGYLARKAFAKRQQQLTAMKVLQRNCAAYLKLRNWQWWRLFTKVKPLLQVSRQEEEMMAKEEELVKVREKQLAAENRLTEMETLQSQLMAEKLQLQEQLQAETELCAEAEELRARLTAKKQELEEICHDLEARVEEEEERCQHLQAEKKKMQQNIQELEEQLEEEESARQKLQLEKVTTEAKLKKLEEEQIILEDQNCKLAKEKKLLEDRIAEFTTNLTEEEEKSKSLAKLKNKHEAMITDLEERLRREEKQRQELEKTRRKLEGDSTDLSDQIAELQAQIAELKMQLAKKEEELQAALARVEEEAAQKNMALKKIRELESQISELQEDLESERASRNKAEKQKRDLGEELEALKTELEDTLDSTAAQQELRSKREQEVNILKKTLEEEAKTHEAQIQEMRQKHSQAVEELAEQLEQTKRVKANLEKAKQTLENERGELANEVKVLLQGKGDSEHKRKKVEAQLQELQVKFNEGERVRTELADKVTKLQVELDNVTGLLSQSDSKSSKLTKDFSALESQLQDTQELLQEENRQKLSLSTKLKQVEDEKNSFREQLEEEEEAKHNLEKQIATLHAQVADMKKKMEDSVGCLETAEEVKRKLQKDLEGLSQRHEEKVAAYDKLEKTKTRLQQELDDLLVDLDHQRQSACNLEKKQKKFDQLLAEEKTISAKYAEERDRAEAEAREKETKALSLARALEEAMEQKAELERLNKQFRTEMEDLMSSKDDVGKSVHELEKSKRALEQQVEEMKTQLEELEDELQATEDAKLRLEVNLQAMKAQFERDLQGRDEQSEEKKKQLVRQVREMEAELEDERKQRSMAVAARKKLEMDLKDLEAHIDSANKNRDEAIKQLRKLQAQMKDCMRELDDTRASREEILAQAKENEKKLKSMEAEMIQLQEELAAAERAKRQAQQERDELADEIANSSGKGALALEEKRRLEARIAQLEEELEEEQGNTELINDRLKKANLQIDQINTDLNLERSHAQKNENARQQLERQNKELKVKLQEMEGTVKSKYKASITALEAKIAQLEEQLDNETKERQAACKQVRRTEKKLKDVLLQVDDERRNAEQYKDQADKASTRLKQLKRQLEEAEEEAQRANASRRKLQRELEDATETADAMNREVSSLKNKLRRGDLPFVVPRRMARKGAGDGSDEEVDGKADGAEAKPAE
UniProt P35580: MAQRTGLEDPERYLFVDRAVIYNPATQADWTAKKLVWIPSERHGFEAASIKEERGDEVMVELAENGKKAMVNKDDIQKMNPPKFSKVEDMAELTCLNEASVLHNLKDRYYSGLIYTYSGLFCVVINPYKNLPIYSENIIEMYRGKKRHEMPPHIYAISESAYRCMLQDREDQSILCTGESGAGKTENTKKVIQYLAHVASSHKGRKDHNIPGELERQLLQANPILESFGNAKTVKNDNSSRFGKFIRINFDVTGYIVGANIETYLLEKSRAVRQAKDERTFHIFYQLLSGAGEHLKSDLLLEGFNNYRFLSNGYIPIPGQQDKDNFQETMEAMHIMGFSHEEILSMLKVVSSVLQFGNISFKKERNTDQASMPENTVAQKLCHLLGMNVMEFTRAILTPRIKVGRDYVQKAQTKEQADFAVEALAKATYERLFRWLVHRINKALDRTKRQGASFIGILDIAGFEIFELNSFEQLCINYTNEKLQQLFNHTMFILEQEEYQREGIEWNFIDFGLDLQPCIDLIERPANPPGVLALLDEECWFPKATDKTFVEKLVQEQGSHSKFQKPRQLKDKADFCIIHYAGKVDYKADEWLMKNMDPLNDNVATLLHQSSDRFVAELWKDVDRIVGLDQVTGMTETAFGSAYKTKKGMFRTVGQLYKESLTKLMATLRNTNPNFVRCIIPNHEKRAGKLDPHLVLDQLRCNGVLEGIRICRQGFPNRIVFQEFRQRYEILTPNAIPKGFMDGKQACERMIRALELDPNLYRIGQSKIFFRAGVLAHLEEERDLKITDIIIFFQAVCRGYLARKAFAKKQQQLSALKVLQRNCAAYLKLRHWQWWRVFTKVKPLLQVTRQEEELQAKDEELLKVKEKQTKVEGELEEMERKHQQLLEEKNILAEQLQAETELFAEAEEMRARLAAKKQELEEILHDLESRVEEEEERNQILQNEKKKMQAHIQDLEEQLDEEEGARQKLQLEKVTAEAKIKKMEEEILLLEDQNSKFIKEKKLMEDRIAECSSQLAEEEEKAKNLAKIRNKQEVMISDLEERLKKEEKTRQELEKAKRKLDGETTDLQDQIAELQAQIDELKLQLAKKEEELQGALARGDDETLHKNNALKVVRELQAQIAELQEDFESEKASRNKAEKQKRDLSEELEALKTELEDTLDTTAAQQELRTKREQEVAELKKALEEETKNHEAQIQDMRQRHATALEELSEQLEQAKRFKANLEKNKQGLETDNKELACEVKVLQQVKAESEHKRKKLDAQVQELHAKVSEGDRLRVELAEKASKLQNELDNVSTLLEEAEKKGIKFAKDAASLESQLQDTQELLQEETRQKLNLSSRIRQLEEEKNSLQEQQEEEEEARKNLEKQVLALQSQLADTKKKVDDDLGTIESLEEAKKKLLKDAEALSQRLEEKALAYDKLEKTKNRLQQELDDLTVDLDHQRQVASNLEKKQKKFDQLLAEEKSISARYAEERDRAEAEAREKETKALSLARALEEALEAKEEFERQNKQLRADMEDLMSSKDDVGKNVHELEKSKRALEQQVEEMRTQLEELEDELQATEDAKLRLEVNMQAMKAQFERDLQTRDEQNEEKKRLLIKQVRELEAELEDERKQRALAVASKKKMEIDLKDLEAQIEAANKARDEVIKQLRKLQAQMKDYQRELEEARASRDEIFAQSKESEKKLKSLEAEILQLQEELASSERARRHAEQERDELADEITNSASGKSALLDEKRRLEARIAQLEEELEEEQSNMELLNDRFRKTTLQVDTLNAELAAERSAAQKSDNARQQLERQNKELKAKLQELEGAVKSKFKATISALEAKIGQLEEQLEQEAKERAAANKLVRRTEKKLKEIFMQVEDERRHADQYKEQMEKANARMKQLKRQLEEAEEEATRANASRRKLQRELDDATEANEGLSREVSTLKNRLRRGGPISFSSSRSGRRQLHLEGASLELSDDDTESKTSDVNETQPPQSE

Target: T1, Laminin-5γ-2 (LAMC2) (human (endogenous in A549 and MCF7)) (UniProt Q13753)
T1 sequence: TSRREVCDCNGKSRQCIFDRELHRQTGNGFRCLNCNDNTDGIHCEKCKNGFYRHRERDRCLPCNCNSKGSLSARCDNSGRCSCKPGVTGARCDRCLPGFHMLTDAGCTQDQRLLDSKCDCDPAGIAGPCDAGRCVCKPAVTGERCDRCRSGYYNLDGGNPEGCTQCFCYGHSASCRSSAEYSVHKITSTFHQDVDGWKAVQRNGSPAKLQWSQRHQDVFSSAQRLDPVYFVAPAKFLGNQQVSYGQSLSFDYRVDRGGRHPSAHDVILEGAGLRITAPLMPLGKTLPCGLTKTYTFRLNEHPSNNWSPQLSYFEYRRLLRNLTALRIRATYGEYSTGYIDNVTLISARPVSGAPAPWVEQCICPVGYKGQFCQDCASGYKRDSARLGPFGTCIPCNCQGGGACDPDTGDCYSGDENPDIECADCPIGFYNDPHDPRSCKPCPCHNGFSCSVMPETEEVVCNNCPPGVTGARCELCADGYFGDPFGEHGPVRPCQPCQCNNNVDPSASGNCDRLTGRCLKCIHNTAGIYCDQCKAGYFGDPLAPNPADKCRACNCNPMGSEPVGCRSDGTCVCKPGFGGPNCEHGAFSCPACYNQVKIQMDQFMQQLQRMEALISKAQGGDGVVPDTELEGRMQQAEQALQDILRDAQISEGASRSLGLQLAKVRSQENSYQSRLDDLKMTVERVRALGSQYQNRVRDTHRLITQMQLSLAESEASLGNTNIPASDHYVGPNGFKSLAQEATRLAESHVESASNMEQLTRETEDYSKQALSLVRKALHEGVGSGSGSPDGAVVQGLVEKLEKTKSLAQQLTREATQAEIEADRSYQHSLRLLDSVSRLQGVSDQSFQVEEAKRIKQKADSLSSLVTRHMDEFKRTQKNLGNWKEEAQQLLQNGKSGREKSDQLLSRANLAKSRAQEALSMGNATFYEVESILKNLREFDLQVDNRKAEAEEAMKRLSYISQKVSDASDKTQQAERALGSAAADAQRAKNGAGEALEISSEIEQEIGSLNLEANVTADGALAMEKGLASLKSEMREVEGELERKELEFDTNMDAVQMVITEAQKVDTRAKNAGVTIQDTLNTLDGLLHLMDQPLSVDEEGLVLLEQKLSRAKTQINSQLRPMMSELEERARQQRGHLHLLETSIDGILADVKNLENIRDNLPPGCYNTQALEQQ
Assay: affinity purification with mass spectrometry; immunoprecipitation of LAMC2 from A549 cells coupled to mass spectrometry (IP-MS); co-purified proteins also shown by silver staining

Row | binding | Substance
1 | binds | myosin heavy-chain 9 (MYH9) (from UniProt P35579 1-1960)
2 | binds | myosin heavy-chain 10 (MYH10) (from UniProt P35580 1-1976)
